Results taken from PubChem BioAssay AID2551 (National Center for Advancing Translational Sciences (NCATS), 2010).
Out of some 310,000 compounds screened, about 17,000 (5.5%) were called active. Inconclusive results, whose numbers are uncertain, are shown with a selection of clear calls. Calls come from the whole dose curve; as a rule, active = well fitted inhibition curve with a large enough effect; inconclusive = small, poorly fitted or top-dose-only effect, or effect the other way; inactive = no such curve, though single readings can be large or run the other way. Potencies beside an inconclusive call are fits to weak or partial responses and may not hold up.

Chains of the proteins cited; added tags and fusions are not shown. Lines headed by an entry give the natural chain unless they say otherwise; changes in a name come on top.
UniProt P51450: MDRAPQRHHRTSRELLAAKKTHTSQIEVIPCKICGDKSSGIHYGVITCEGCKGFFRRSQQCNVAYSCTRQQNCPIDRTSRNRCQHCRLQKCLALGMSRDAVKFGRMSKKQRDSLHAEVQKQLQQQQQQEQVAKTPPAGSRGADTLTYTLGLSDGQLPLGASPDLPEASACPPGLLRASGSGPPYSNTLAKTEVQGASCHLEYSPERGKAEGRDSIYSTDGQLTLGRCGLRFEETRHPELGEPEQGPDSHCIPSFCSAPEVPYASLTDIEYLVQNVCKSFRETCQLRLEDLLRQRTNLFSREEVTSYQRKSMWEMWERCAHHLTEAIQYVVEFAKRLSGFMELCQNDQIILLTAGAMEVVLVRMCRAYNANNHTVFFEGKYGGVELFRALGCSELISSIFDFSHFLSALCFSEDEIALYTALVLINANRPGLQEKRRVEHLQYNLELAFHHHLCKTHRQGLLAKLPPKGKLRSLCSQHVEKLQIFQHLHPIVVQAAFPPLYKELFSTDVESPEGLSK

target: Nuclear receptor ROR-gamma (Mus musculus) (UniProt P51450); assay: qHTS for inhibitors of ROR gamma transcriptional activity; conditions: Drosophila S2 Gal4-RORgamma UAS-luciferase reporter, 20 h; activity change, negative = inhibition: at 53.6 µM (top of the series); note: nearly all actives have a fitted effect of over 60% in size
Text: NIH Molecular Libraries Probe Production Network [MLPCN] NIH Chemical Genomics Center [NCGC] MLPCN Grant: R03 DA026211-01 Assay Provider: Dan Littman, New York University Assay Overview: The retinoic acid-related orphan receptor (ROR) gamma is a transcription factor that has a central role in the differentiation of Th17 cells, a subset of T helper cells that secrete the inflammatory cytokines IL-17, IL-17F, and IL-22. Th17 cells have been implicated in graft versus host disease, autoimmune disease and asthma. ROR gamma is induced in naive T helper cells in the presence of TGF-beta combined with IL-6, IL-21, or IL-23, and thereafter directs the expression of the Th17 lineage cytokines. To study the mechanism of action of ROR gamma, an insect cell-based assay was screened. This Drosophila Schneider cell line was stably transfected with two vectors: a gene expressing a fusion of the Gal4 DNA binding domain and ROR gamma transactivation domain under the control of the metallothionine promoter and a Photinus luciferase reporter regulated by the Gal4 binding site enhancer, UAS. […] Small molecule inhibitors of ROR gamma activity are detected by a decrease in luciferase reporter activity.
Assay Protocol Summary: For screening, 600 cells in 4 uL/well were dispensed into white solid 1536-well plates (Grenier) using a solenoid-based dispenser. Following transfer of 23 nL compound or DMSO vehicle by a pin tool, the plates were incubated 1 hr at ambient temperature, and 1 uL/well copper sulfate (700 uM final concentration) was added. The plates were centrifuged 15 s at 1000 RPM and incubated 20 hr at ambient temperature. After addition of 1.5 uL Photinus luciferase detection reagent, the plates were incubated 10 min at ambient temperature and then read by an ViewLux (Perkin Elmer) to detect luminescence. Keywords: NIH Roadmap, MLPCN, MLI, MLSMR, qHTS, NCGC, qHTS, nuclear hormone receptor, retinoic acid-related orphan receptor, ROR gamma
% is set by controls: 0 for no effect and ±100 for the full control effect; potency is the fitted concentration of half-maximal effect.

Activity change, negative = inhibition, inactive:
O=C(CC1Nc2cccc3cccc(c23)NC1=O)Nc1ccc(F)cc1 (stereo unspecified) 37.8%
c1ccc2oc(-c3[nH]ncc3CN3CCC(N4CCSCC4)CC3)cc2c1 34.9%
CCOC(=O)c1c(C)sc2c1N(C(=O)CN(CC)CC)c1ccccc1S2 -11.7%
CCN1CCN(c2ccc(S(=O)(=O)N3CCCCC3)cc2NC(=O)Cc2ccc(OC)cc2)CC1 2.43%
CSCCC(NC(=O)c1ccccc1)C(=O)N/N=C(\C)c1ccccc1 (stereo unspecified) -4.05%
CC(=O)N1CCC2(CC1)CCN(c1cccc(-c3ccccc3)c1)CC2 28.8%
Cc1ccc(N(Cc2cc3ccccc3[nH]c2=O)S(C)(=O)=O)cc1 24.2%
Cc1cccc(C(=O)NC2CC3CCCC(C2)N3Cc2ccccc2)c1 (stereo unspecified) -6.51%
COc1ccc(C)cc1NC(=O)C1CC(=O)N(CCc2ccccc2)C1 (stereo unspecified) -2.07%
Cc1ccc(Cn2ccc(O)c(Cc3ccccc3)c2=O)cc1 2.94%
COCCOc1cnn(-c2cc(Oc3ccc(C)cc3)ncn2)c(=O)c1Cl 38.2%
CC(=O)N1N=C(c2cccc(O)c2)CC1c1cccs1 (stereo unspecified) 24.3%
C=CCNc1ccc(C(=O)O)cc1 -7.96%
CN1CCc2c(sc(NC(=O)c3cc(Cl)sc3Cl)c2C(N)=O)C1 25.3%
CCCc1c(C)c2cccc(C)c2[nH]c1=O 21.5% [at 10 µM]
CCOC(=O)c1[nH]c(C)c(C(=O)OCc2c(C)noc2C)c1C 40.1%
Cc1cc2ncc(-c3cccc(Cl)c3)cn2n1 10.1%
CCCCOc1ccc(C2OC34CCCCC3C(C#N)(C#N)C2(C#N)C(=N)O4)cc1 (stereo unspecified) -29.4%
O=C(c1ccc(NS(=O)(=O)c2ccccc2)cc1)N1CCCC1 18.7%
COCn1c(C(O)c2ccccc2)cc2ccccc21 (stereo unspecified) 14.4%
COc1ccc(S(=O)(=O)N2CCN(c3ccccn3)CC2)cc1OC 11.5%
Cc1ccc(N(C(=O)CNC(=O)c2ccco2)C(C(=O)NC2CCCCC2)c2cccnc2)cc1 (stereo unspecified) -4.95%
Cc1ccc(-c2noc(CCC(=O)NCCN3CCN(Cc4ccccc4)CC3)n2)cc1 36.8%
CC(C)CCn1c(S(=O)(=O)O)nc2ccccc21 -6.15%
COC(=O)/C=C/c1cccc([C@H]2[C@@H]3C=CC[C@@H](C)[C@@H]3C(=O)N2Cc2ccccc2)c1 -17.1%
CCc1cccc(C)c1NC(=O)c1cccnc1 -23.2%
COc1ccc(N(CC(=O)NCCc2cccc(C)c2)S(=O)(=O)c2c(C)noc2C)cc1 15.2%

Potency, inactive:
CC(=O)N1CC=CC1(CC(C)C)C(=O)NCCc1c[nH]c2ccccc12 (stereo unspecified)

Potency, inconclusive:
COc1ccc(/C=C2/C(=O)N(Cc3ccccc3)N=C2C)cc1 2 µM [inhibitor, full curve]
COc1cc(/C=c2\sc3n(c2=O)C(c2ccccc2)C(c2ccccc2)=NN=3)ccc1O (stereo unspecified) 3.98 µM [activator, single point]
Cc1ccc(NS(=O)(=O)c2cc([N+](=O)[O-])ccc2NNC(=S)Nc2cccc(Cl)c2)c(C)c1 35.5 µM [inhibitor, single point]
Cc1cccc(NC(=S)N/C(=N/S(=O)(=O)c2ccccc2)c2ccccc2)c1 31.6 µM [inhibitor, single point]
COc1cccc(/C=N/NC(=O)c2ccc(COc3ccc(Cl)cc3Cl)o2)c1 35.5 µM [inhibitor, single point]
c1ccc2c(c1)nc1n2C2(N3CCOCC3)CCCC2C1N1CCOCC1 (stereo unspecified) 14.1 µM [inhibitor, single point]
CC(C)c1ccc(-n2nc3ccc(N)cc3n2)cc1 22.4 µM [inhibitor, single point]
CCc1ccc(NC2CC(=O)N(c3ccc(OC)cc3OC)C2=O)cc1 (stereo unspecified) 35.5 µM [activator, single point]
Cc1ccc2cccc(NC(=O)C(F)(F)F)c2n1 6.31 µM [inhibitor, partial curve, poor fit]
CN(CCc1ccccn1)C(=O)CCc1nnc(CCCc2ccccc2)o1 35.5 µM [activator, single point]
CC(C)(C)c1nnc(SCC(=O)c2ccccc2)n(N)c1=O 35.5 µM [inhibitor, single point]
COc1ccc(-c2cn(-c3ccc(OC)cc3)c3[n+]2-c2ccccc2CC3)cc1 35.5 µM [inhibitor, single point]
CCOC(=O)c1c(/N=C/c2ccccc2O)sc2c1CCC2 35.5 µM [activator, single point]
O=S(=O)(Nc1cccc(-n2cnnn2)c1)c1cc(Br)ccc1Br 15.8 µM [inhibitor, single point]
COc1ccc(/C=N/Nc2nc3ccccc3c(=O)n2-c2ccccc2)cc1OC 35.5 µM [inhibitor, single point]
O=C(CN1C(=O)C2CCCCC2C1=O)Nc1nc(-c2ccccn2)cs1 (stereo unspecified) 12.6 µM [inhibitor, single point]
O=C(O)c1ccc(NC(=S)NC(=O)c2cncc(Br)c2)cc1 1.26 µM [inhibitor, full curve, poor fit]
O=C(Nc1ccc2nc(C3CC3)n(Cc3ccc(F)cc3)c(=O)c2c1)c1ccco1 25.1 µM [activator, single point]
O=C(CN1CCN(S(=O)(=O)c2ccccc2)CC1)NC(=O)NCc1ccco1 0.501 µM [inhibitor, full curve, poor fit]
COc1ccccc1N1CCN(C(=O)c2cc(C3CC3)on2)CC1 31.6 µM [activator, single point]
Cc1ccsc1/C=C1\CCC(C2CCCC2)C1=O (stereo unspecified) 25.1 µM [inhibitor, single point]
COc1cccc(/C=C/C(=O)c2ccc(NC3=NCCCS3)cc2)c1 35.5 µM [inhibitor, single point]
Cc1[nH]c2ccccc2c1C(=O)CNc1nccs1 6.31 µM [inhibitor, partial curve, poor fit]
O=C(Nc1ccccc1)N1CCN2C(=O)c3ccccc3C12c1ccccc1 (stereo unspecified) 28.2 µM [activator, single point]
O=C(Nc1ccc(F)cc1)c1nn(-c2ccccc2)c(=O)cc1Cl 25.1 µM [inhibitor, single point]
S=C(Nc1ccc(OCc2ccccc2)cc1)Nc1cccc(Cl)c1Cl 25.1 µM [inhibitor, single point]
C=CCNc1nc(C(F)(F)F)nc2c1nnn2Cc1ccccc1Cl 5.62 µM [inhibitor, full curve, poor fit]
Cc1ccnc(NC(=O)CCC2COc3ccccc3O2)c1 (stereo unspecified) 12.6 µM [activator, partial curve]
COc1ccc(NC(=O)C2=CC(c3ccc(OC)c(OC)c3)=NS(=O)(=O)N2C)cc1 17.8 µM [activator, single point]
CC1CCN(CC(=O)Nc2nc(-c3ccccc3)cs2)CC1 12.6 µM [inhibitor, single point]
O=C(Nc1ccccc1)c1ccc2c(c1)OCCO2 1 µM [activator, full curve, poor fit]
Nc1c(C(=O)NC2CCCC2)c2nc3ccccc3nc2n1/N=C/c1ccco1 0.708 µM [inhibitor, full curve, poor fit]
O=[N+]([O-])c1ccc(Sc2n[nH]c(-c3ccco3)n2)nc1 35.5 µM [inhibitor, single point]
COC(=O)c1sccc1NC(=O)Nc1cc(OC)ccc1OC 4.47 µM [activator, partial curve]
CCN(c1ccc(NC(=O)COC(=O)CCc2cc(OC)c(OC)c(OC)c2)cc1)C(C)C 7.08 µM [activator, partial curve]
CCCS(=O)(=O)c1c(S(=O)(=O)CCC)c2c(C)cccn2c1C(=O)N/N=C/c1cc(O)cc(O)c1 12.6 µM [inhibitor, single point]
Cc1cccc(-c2nnc3sc(-c4ccccc4C)nn23)c1 8.91 µM [inhibitor, partial curve]
CCc1ccc2nc(N(CCCN(C)C)C(=O)c3ccc(S(=O)(=O)N(C)C4CCCCC4)cc3)sc2c1 35.5 µM [inhibitor, single point]

2 records drawn at random from those above:
Potency, inconclusive:
O=[N+]([O-])c1ccc(Sc2n[nH]c(-c3ccco3)n2)nc1 35.5 µM [inhibitor, single point]
Cc1ccnc(NC(=O)CCC2COc3ccccc3O2)c1 (stereo unspecified) 12.6 µM [activator, partial curve]

Following part:

Potency, active:
COc1ccc(C/C(C)=N/NS(=O)(=O)c2ccc(Br)cc2)cc1 10 µM
COc1cc(NS(=O)(=O)c2ccc(N/C=C(\C=O)c3nc4cc(Cl)ccc4o3)cc2)nc(OC)n1 14.1 µM
COc1ccc(C(=O)Nc2nc3ccccc3[nH]2)cc1 2.82 µM
Cc1n[nH]c(C)c1Cc1c(F)cccc1Cl 15.8 µM
CCCCCCC(C)n1[nH]c(=O)c2c(C)cc(=O)[nH]c21 (stereo unspecified) 7.08 µM
O=C(NC(=S)Nc1nc2c(s1)CCCC2)c1ccccc1 0.562 µM
CCCC(C)NC(=S)Nc1cc(C)cc(C)c1 (stereo unspecified) 1.41 µM
O=C(CC(=O)c1ccccc1O)c1cccc(F)c1 7.08 µM
CC(C)C(=O)NC(=S)Nc1ccc(S(=O)(=O)N(C)Cc2ccccc2)cc1 14.1 µM
Cc1ccc(C(=O)NC(=S)Nc2ccc(CN3CCCCC3)cc2)c(C)c1 12.6 µM
